No constants are given. Whether binding was seen depends on the method and setting. Binding seen in cells or lysates may run through a third protein. Some binding calls cover weakened binding; strength is not graded here. For some assays here: Sequences can lack the tags named with a protein.
How the values were obtained:
[1] = target: T1, HA-IKKβ (UniProt O14920); assay: co-IP; 293T cells co-transfected with both tagged proteins; lysis in 50 mM Tris-HCl pH 7.4, 150 mM NaCl, 1% Triton X-100; antibody-conjugated beads 3 h; western blot; for GFP-YAP and Myc-p65 also after 10 μM TPCA-1 or 10 μM IKK-16 for 18 h
T1 sequence: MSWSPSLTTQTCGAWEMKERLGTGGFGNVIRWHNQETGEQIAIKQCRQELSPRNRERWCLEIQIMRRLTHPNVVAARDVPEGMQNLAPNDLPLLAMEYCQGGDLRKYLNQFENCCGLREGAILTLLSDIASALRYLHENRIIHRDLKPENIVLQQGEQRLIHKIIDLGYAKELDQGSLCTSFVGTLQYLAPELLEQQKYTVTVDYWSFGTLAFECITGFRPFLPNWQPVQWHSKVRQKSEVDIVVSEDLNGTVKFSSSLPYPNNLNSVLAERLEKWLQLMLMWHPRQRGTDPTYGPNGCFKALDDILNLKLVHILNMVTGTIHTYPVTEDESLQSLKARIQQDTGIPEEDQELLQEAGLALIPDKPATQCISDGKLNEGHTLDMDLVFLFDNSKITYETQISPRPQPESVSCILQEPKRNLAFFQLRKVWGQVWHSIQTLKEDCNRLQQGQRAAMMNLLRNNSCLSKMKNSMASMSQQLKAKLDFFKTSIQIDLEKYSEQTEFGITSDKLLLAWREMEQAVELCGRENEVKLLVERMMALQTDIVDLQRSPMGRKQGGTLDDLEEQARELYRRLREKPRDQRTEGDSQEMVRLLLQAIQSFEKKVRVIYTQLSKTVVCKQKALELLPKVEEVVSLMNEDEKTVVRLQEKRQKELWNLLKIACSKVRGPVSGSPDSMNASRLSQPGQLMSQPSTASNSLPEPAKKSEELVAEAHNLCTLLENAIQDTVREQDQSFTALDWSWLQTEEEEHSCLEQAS

By UniProt entry, the sequences of proteins in these tests, tags left out.
UniProt Q04206: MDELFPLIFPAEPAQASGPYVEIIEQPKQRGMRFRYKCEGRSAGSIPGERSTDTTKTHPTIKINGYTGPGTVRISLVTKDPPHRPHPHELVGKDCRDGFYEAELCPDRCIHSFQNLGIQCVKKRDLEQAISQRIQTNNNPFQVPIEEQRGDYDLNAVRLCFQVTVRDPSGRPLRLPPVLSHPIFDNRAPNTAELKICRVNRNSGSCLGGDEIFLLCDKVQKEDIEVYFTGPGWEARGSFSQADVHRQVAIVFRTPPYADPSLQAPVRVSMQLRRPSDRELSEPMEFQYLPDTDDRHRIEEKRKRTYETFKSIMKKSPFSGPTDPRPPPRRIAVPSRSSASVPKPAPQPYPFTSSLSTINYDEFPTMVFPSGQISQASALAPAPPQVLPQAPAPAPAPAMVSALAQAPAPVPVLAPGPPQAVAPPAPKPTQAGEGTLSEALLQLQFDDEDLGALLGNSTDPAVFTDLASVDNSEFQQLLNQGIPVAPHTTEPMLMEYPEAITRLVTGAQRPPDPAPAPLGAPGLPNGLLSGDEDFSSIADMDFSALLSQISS
UniProt P46937: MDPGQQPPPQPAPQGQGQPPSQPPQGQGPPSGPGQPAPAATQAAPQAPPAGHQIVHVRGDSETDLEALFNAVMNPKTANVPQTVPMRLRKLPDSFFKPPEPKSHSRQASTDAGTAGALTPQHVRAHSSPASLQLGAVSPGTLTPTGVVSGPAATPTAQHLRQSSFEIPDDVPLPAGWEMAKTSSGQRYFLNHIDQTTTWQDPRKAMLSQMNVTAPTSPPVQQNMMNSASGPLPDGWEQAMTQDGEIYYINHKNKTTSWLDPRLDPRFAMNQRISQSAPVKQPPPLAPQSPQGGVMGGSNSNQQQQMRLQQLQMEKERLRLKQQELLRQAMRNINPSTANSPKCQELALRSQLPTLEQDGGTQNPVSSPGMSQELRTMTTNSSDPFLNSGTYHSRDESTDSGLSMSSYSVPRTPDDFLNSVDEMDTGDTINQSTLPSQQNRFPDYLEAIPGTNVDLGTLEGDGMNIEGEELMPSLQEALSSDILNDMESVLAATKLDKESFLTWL

[2] = target: Myc-p65 (UniProt Q04206); assay: as above
[3] = target: T2, HA-IKKε (UniProt Q14164); assay: as above
T2 sequence: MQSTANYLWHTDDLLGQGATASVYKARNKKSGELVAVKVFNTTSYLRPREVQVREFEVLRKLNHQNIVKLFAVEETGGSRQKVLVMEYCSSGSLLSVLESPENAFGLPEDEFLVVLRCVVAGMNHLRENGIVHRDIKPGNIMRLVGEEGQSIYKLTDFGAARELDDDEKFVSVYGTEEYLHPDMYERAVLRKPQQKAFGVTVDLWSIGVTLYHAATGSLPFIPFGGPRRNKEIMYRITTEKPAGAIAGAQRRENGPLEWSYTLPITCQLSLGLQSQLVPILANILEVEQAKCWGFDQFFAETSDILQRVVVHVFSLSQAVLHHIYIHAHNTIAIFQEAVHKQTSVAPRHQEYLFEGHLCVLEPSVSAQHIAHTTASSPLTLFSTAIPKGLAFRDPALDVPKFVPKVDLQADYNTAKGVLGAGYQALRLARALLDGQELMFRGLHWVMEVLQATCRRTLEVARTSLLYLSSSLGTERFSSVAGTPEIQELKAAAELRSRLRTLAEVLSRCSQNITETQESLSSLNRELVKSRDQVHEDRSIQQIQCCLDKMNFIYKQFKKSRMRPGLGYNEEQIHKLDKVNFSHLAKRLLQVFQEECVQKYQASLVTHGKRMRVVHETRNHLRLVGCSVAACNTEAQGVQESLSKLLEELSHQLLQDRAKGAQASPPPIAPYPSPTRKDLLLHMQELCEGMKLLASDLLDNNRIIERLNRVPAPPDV

[4] = target: Flag-YAP (UniProt P46937); assay: as above
[5] = target: YAP (endogenous, MCF7) (human (endogenous in MCF7)) (UniProt P46937); assay: co-IP; endogenous proteins of MCF7 cells; immunoprecipitation with YAP antibody (rabbit IgG as control); cells treated with 10 μM TNFα for 12 h (p65), or with 10 μM TPCA-1 or 10 μM IKK-16 for 12 h or siRNA against IKKβ and/or IKKε (TEAD4)

GFP-YAP (from UniProt P46937 1-504)
binding [1]: binds
binding [2]: binds
binding [3]: binds

GFP-p65 (from UniProt Q04206 1-551)
binding [4]: binds

p65 (endogenous, MCF7) (from UniProt Q04206 1-551)
binding [5]: binds

— paper PMC5623908
